Data reported in PubChem BioAssay AID226 (DTP/NCI, 2004).
The list does not hold the whole screen: it gathers tests that were run many times, whatever their T/C, doses with no T/C, and many T/C values between a quarter and a half above the control. Further doses and runs are listed elsewhere. T/C is the treated group as % of the vehicle group. Some entries give survivors of the animals treated and no T/C: the source files T/C as zero there, which appears to mark a toxic dose or a test without result, not a measured value. Some survivor counts are full or nearly so, which does not show that the dose was tolerated: the source hardly ever lists a survival T/C far under the control, and the zero likely stands for such cases as well. Counts of survivors are from the toxicity check (mostly the fifth day) where no day follows; animals may have died later. Schedules are NCI's codes, read here as Q, the interval in days (D) or hours (H), X, the number of doses. Brackets with × count equal records among those shown. Some entries hold several experiments; their values stand side by side, smallest first. Where survival is the endpoint, the PubChem record calls one and a half times the control and up active, and a quarter to a half above the control has no call in these data; cut-offs in other NCI protocols can differ. Some T/C values carry the count of animals alive at the toxicity check (mostly the fifth day); without a count, all were alive then.

Test system: B6C3F1 mice, intracerebral ependymoblastoma, median survival T/C
Test: NCI In Vivo Anticancer Drug Screen. Data for tumor model Ependymoblastoma (intracerebral) in B6C3F1 mice
Conditions: T/C endpoint: median survival time, higher T/C = longer survival
Protocol: The antitumor activity of compounds was measured in mice bearing transplantable tumors. Survival or tumor size were measured and the results are expressed as the measurement made in the treated group (T) divided by the measurement made in the vehicle treated control group (C). The tumor model used in this assay is Ependymoblastoma (intracerebral) in B6C3F1 mice

[1] = dose: 512.0 mg/kg/injection, schedule: Q01DX005 (ip), vehicle: Klucel (hydroxypropylcellulose) (HPC)
[2] = dose: 1024.0 mg/kg/injection, schedule: Q01DX005 (ip), vehicle: Klucel (hydroxypropylcellulose) (HPC)
[3] = dose: 400.0 mg/kg/injection, schedule: Q01DX005 (ip), vehicle: saline with Tween-80

O=C1NC2(CCCCC2)C(=O)N1CCN(CCCl)CCCl
T/C (dose: 2.0 mg/kg/injection, schedule: Q01DX005 (ip), vehicle: saline, evaluated on day 45): 101 % of control
T/C (dose: 2.0 mg/kg/injection, schedule: Q01DX005 (ip), vehicle: saline, evaluated on day 60): 95 [9 of 10 alive], 103, 107 % of control [9 of 10 alive]
T/C (dose: 4.0 mg/kg/injection, schedule: Q01DX005 (ip), vehicle: saline, evaluated on day 45): 101 and 104 % of control
T/C (dose: 4.0 mg/kg/injection, schedule: Q01DX005 (ip), vehicle: saline, evaluated on day 60): 96, 103, 104, 123 % of control
T/C (dose: 8.0 mg/kg/injection, schedule: Q01DX005 (ip), vehicle: saline, evaluated on day 45): 112 and 128 % of control
T/C (dose: 8.0 mg/kg/injection, schedule: Q01DX005 (ip), vehicle: saline, evaluated on day 60): 103, 106, 116, 121 % of control
T/C (dose: 10.0 mg/kg/injection, schedule: Q01DX005 (ip), vehicle: other): 130 % of control
survivor count (dose: 12.0 mg/kg/injection, schedule: Q01DX005 (ip), vehicle: Klucel (hydroxypropylcellulose) (HPC)): 10 of 10
survivor count (dose: 12.0 mg/kg/injection, schedule: Q01DX005 (oral), vehicle: Klucel (hydroxypropylcellulose) (HPC)): 10 of 10
survivor count (dose: 12.5 mg/kg/injection, schedule: Q01DX005 (ip), vehicle: Klucel (hydroxypropylcellulose) (HPC)): 9 of 10
T/C (dose: 16.0 mg/kg/injection, schedule: Q01DX005 (ip), vehicle: Klucel (hydroxypropylcellulose) (HPC)): 147 % of control
T/C (dose: 16.0 mg/kg/injection, schedule: Q01DX005 (ip), vehicle: saline, evaluated on day 45): 98 % of control
T/C (dose: 16.0 mg/kg/injection, schedule: Q01DX005 (ip), vehicle: saline, evaluated on day 60): 100, 108, 113 % of control
survivor count (dose: 16.0 mg/kg/injection, schedule: Q01DX005 (ip), vehicle: saline): 9 of 10 (2×)
survivor count (dose: 20.0 mg/kg/injection, schedule: Q01DX005 (ip), vehicle: other): 5 of 8
survivor count (dose: 20.0 mg/kg/injection, schedule: Q01DX005 (ip), vehicle: saline): 7 of 8
survivor count (dose: 24.0 mg/kg/injection, schedule: Q01DX005 (ip), vehicle: Klucel (hydroxypropylcellulose) (HPC)): 7 of 10
survivor count (dose: 25.0 mg/kg/injection, schedule: Q01DX005 (ip), vehicle: Klucel (hydroxypropylcellulose) (HPC)): 7 of 10
survivor count (dose: 32.0 mg/kg/injection, schedule: Q01DX005 (ip), vehicle: Klucel (hydroxypropylcellulose) (HPC)): 4 of 10
T/C (dose: 32.0 mg/kg/injection, schedule: Q01DX005 (ip), vehicle: saline, evaluated on day 45): 122 % of control
T/C (dose: 32.0 mg/kg/injection, schedule: Q01DX005 (ip), vehicle: saline, evaluated on day 60): 117 and 125 % of control
survivor count (dose: 32.0 mg/kg/injection, schedule: Q01DX005 (ip), vehicle: saline): 1 of 10 and 9 of 10
survivor count (dose: 40.0 mg/kg/injection, schedule: Q01DX005 (ip), vehicle: other): 1 of 8
survivor count (dose: 40.0 mg/kg/injection, schedule: Q01DX005 (ip), vehicle: saline): 2 of 8
survivor count (dose: 48.0 mg/kg/injection, schedule: Q01DX005 (oral), vehicle: Klucel (hydroxypropylcellulose) (HPC)): 6 of 6
survivor count (dose: 64.0 mg/kg/injection, schedule: Q01DX005 (ip), vehicle: saline): 0 of 10 and 3 of 10
survivor count (dose: 96.0 mg/kg/injection, schedule: Q01DX005 (oral), vehicle: Klucel (hydroxypropylcellulose) (HPC)): 5 of 6
survivor count (dose: 128.0 mg/kg/injection, schedule: Q01DX005 (ip), vehicle: saline): 0 of 10 (2×)

CN(C)CCCNc1c2ccccc2nc2cccc([N+](=O)[O-])c12
survivor count (dose: 0.12 mg/kg/injection, schedule: Q01DX005 (ip), vehicle: saline): 10 of 10
survivor count (dose: 0.25 mg/kg/injection, schedule: Q01DX005 (ip), vehicle: saline): 9 of 10 and 10 of 10 (2×)
survivor count (dose: 0.5 mg/kg/injection, schedule: Q01DX005 (ip), vehicle: saline): 3 of 10, 5 of 10, 8 of 10
survivor count (dose: 1.0 mg/kg/injection, schedule: Q01DX005 (ip), vehicle: saline): 0 of 10 (2×) and 3 of 10
survivor count (dose: 250.0 micrograms/kg/injection, schedule: Q01DX005 (ip), vehicle: saline): 10 of 10 (2×)

NCCOCC(N)C(=O)O (centres undefined)
survivor count (dose: 1000.0 mg/kg/injection, schedule: Q01DX005 (ip), vehicle: saline): 2 of 10

O=c1[nH]c(=O)n(C2CC(O)C(CO)O2)cc1C(F)(F)F (centres undefined)
survivor count (dose: 64.0 mg/kg/injection, schedule: Q01DX005 (ip), vehicle: Klucel (hydroxypropylcellulose) (HPC)): 10 of 10
survivor count (dose: 256.0 mg/kg/injection, schedule: Q01DX005 (ip), vehicle: Klucel (hydroxypropylcellulose) (HPC)): 10 of 10
survivor count [1]: 9 of 10

Nc1ncnc2nc[nH]c12
survivor count [1]: 5 of 10
survivor count [2]: 0 of 10

OC(CBr)C(O)C(O)C(O)CBr (centres undefined)
T/C (dose: 50.0 mg/kg/injection, schedule: Q01DX005 (ip), vehicle: saline with Tween-80, evaluated on day 40): 106 % of control
T/C (dose: 50.0 mg/kg/injection, schedule: Q01DX005 (ip), vehicle: saline with Tween-80, evaluated on day 60): 109 (2×), 112 [8 of 10 alive], 114, 115 % of control
T/C (dose: 100.0 mg/kg/injection, schedule: Q01DX005 (ip), vehicle: saline with Tween-80, evaluated on day 40): 120 % of control
T/C (dose: 100.0 mg/kg/injection, schedule: Q01DX005 (ip), vehicle: saline with Tween-80, evaluated on day 60): 96 [7 of 10 alive], 101, 112 (2×), 119, 133 % of control
T/C (dose: 100.0 mg/kg/injection, schedule: Q01DX005 (ip), vehicle: saline, evaluated on day 45): 128 % of control
T/C (dose: 100.0 mg/kg/injection, schedule: Q01DX005 (ip), vehicle: saline, evaluated on day 60): 131 and 135 % of control
T/C (dose: 200.0 mg/kg/injection, schedule: Q01DX005 (ip), vehicle: saline with Tween-80, evaluated on day 40): 104 % of control
T/C (dose: 200.0 mg/kg/injection, schedule: Q01DX005 (ip), vehicle: saline with Tween-80, evaluated on day 60): 86 [4 of 10 alive], 108 [9 of 10 alive], 114, 121, 128, 133 % of control
T/C [3]: 114, 119 [7 of 10 alive], 129, 141 % of control
survivor count [3]: 9 of 10 and 10 of 10
survivor count (dose: 400.0 mg/kg/injection, schedule: Q01DX005 (ip), vehicle: saline): 10 of 10

Cc1ncc(CO)c(C)c1O
T/C (dose: 128.0 mg/kg/injection, schedule: Q01DX001 (ip), vehicle: Klucel (hydroxypropylcellulose) (HPC)): 103 [survivors not given], 105, 106 [survivors not given], 111 % of control [survivors not given]
T/C (dose: 256.0 mg/kg/injection, schedule: Q01DX001 (ip), vehicle: Klucel (hydroxypropylcellulose) (HPC)): 91 [survivors not given], 92 [survivors not given], 95 [survivors not given], 107 % of control
survivor count (dose: 512.0 mg/kg/injection, schedule: Q01DX001 (ip), vehicle: Klucel (hydroxypropylcellulose) (HPC)): 3 of 10
survivor count [1]: 0 of 10
survivor count (dose: 1024.0 mg/kg/injection, schedule: Q01DX001 (ip), vehicle: Klucel (hydroxypropylcellulose) (HPC)): 0 of 10
survivor count [2]: 0 of 10

O=C(NC1=C(N2CC2)C(=O)C(NC(=O)OCCO)=C(N2CC2)C1=O)OCCO
survivor count (dose: 0.18 mg/kg/injection, schedule: Q01DX005 (ip), vehicle: saline): 6 of 10
survivor count (dose: 0.39 mg/kg/injection, schedule: Q01DX005 (ip), vehicle: saline): 5 of 8
survivor count (dose: 0.75 mg/kg/injection, schedule: Q01DX005 (ip), vehicle: saline): 6 of 10
